Reference: PubChem BioAssay AID686937 (Drosophila RNAi Screening Center, 2013)

- Screen: 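Knock-downs that reduce output of a secreted reporter enzyme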 (primary screen)
- Cell system: Drosophila S2 cells expressing secreted horseradish peroxidase
- Knock-down reagent: long dsRNA against Drosophila genes
- Duration: about 5.5 days (5 days dsRNA, then 12 h reporter induction)
- Challenge: reporter expression induced after 5 days of dsRNA, read 12 h later; inducer not stated
- Measured: 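Chemiluminescent measurement of peroxidase in the medium 12 h after reporter induction, following 5 days of dsRNA, given as a z-score per plate; higher means more secretion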
- Direction: z-score: higher = more reporter secreted into medium
In all, the deposit lists about 23,000 reagents; below is an unselected part of those that have a named target and a result. 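Reduced-secretion tags in replicate 1 do not always agree with the z-scores; no criterion for assigning the tags was given.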 A plus sign joins genes that one reagent is predicted to hit. Not all columns of the deposit are shown. Not stated in the record: the amount of reagent.

For Awh (Arrowhead) [DRSC08140] the deposit lists z-score, replicate 1 = 0.23.
Knock-down of CG40498 [DRSC07786] came out at: z-score, replicate 1 = 0.04.
With knock-down of EMC10 (ER membrane protein complex subunit 10) [DRSC11850], the record shows z-score, replicate 1 = 0.42.
After knock-down of Nopp140 [DRSC11872], the screen gave z-score, replicate 1 = -0.01.
Knock-down of gek (genghis khan) [DRSC04688] resulted in: z-score, replicate 1 = 0.28.
Depletion of CG9154 [DRSC03150] came out at: z-score, replicate 1 = 0.26.
CG15258 [DRSC02478] showed z-score, replicate 1 = -0.14.
Knock-down of VhaAC39-2 (Vacuolar H[+] ATPase AC39 subunit 2) [DRSC15609] came out at: z-score, replicate 1 = 0.27.
Depletion of bys (by S6) [DRSC18748] came out at: z-score, replicate 1 = 0.1.
Knock-down of CG7011 + Prp31 [DRSC10760] resulted in: z-score, replicate 1 = 0.2.
With knock-down of Gycalpha99B (Guanylyl cyclase alpha-subunit at 99B) [DRSC16690], the record shows z-score, replicate 1 = 0.25.
Depletion of kirre (kin of irre) [DRSC18785] came out at: z-score, replicate 1 = 0.27.
Silencing of wam (wampa) [DRSC15171] came out at: z-score, replicate 1 = 0.25.
Against dl (dorsal) [DRSC03520], the values are z-score, replicate 1 = 0.6.
Silencing of dl (dorsal) [DRSC03521] came out at: z-score, replicate 1 = 0.49.
CG33269 [DRSC10585] scored z-score, replicate 1 = -1.84.

Laid out differently: 2 of the entries above
dl (dorsal) [DRSC03521]
- z-score, replicate 1: 0.49

CG33269 [DRSC10585]
- z-score, replicate 1: -1.84
